Assay results taken from patent publication US20240239863A1 (HANGZHOU ZHONGMEIHUADONG PHARMACEUTICAL CO., LTD., priority 2022, published 2024).
Non-standard residues stand in square brackets, D forms with d. No end group written: not given here. Aib = CC(C)(N)C(=O)O

Assay: general procedure: Fmoc solid-phase peptide synthesis; Wang resin, 0.58 mmol/g (Fmoc-L-Tyr(tBu)-Wang resin); DIC/HOBt (DMAP for resin loading)
Conditions: whole synthesis
For Y[Aib]EGTFISDYSIALDKIHQEDFVNWLLAQRG, the “final purity (method not given)” value was 98.2%. In the case of Y[Aib]EGTFISDYSIALDKLHQEDFVNWLLAQRG, the “final purity (method not given)” value is reported as 97.5%. In the case of Y[Aib]EGTFISDYSIALDRIHQQDFVNWLLAQKG, the “final purity (method not given)” value is reported as 95.8%. For Y[Aib]EGTFISDYSIALDKLHQQDFVNWLLAQRG, the “final purity (method not given)” value was 98.2%.
